# Measured values taken from patent US20150297619A1, “METHODS AND COMPOSITIONS FOR PRESERVING THE MUCOSAL BARRIER” (priority 2014, published 2015).
# For at least one compound, name, drawing or mass did not settle the structure.
# What was measured:
# [1] = system: MMP-9 dimers, pro-MMP-2, MMP-2, MMP-1 or MMP-3; experiment: Gelatin gel zymography of pre-ischemic intestinal homogenates renatured with inhibitor: MMP bands; type: biochemical, rat; settings: inhibitor in renaturing and developing buffer: tranexamic acid 20 mM, doxycycline 1 mg/ml, GM-6001 1 ug/ml
# Protocol: Gelatin Gel Zymography—Segments 2 and 7 from pre-ischemic intestines were homogenized (0.1 g tissue/ml homogenization buffer; PBS pH 7.4 with 0.5% hexadecyltrimethyl bromide) and centrifuged at 1.4×10^4 g for 20 minutes. Supernatants were stored at −80° C. until samples were processed. To assess the proteolytic activities of individual proteases in intestinal tissue samples, sample volumes of 1 μl (with 2 μg of protein) were separated by gel electrophoresis in SDS-PAGE gels containing 80 μg/ml gelatin. […] The molecular weights of the proteases were estimated by use of a standard protein ladder (Invitrogen). Gels were digitized and bands were analyzed by densitometry in ImageJ (rsbweb.nih.gov/ij/). […] These gels were compared to a concurrently run gel processed normally.
# [2] = system: intestinal villi; experiment: Morphological analysis of intestinal villi after ex vivo ischemia (Van Gieson/hematoxylin); parameters: species or system rat; settings: jejunum and ileum after 2 hrs ex vivo ischemia
# Protocol: After the two-hour ischemic incubation, intestinal pieces from segments 2 (jejunum) and 7 (ileum) were embedded in O.C.T. (Tissue Tek, Torrance, Calif.) and snap frozen in t-methyl butane in liquid nitrogen. Intestine samples from segments 2 and 7 (for protease analysis) and segment 7 (for immunoblots) were snap frozen and stored for subsequent homogenization. Morphological Analysis and TUNEL Labeling—Intestinal segments frozen in O.C.T. were cut into 5 μm sections. Sections were fixed using ice-cold methanol (8 min at −20° C.) and immediately washed four times in distilled water. Nuclei were stained by incubating sections in freshly mixed Weigert's Iron Hematoxylin A and B (Electron Microscopy Science, Hatfield, Pa.) (10 min) followed by rinsing thoroughly with water. Collagen fibers were labeled by incubating (2 min) in Van Gieson's Solution (Electron Microscopy Science). Prior to mounting, all slides were dehydrated (70, 95, 100% ethanol) and cleaned with xylene. After air-drying overnight, sections were mounted using Hard Set Mounting Media (Vector Laboratories, Burlingame, Calif.). […] The separation of the mucosal epithelial layer was quantified for groups that had intact villi following the two hour ischemic period. Images were blinded and the distance between the mucosal epithelial layer and the lamina propria was measured over five lengths across a minimum of 6 villi.
# [3] = system: mucin 13, occludin, and E-cadherin; experiment: Immunoblots of epithelial barrier proteins in post-ischemic intestinal homogenates (segment 7); parameters: species or system rat; settings: ileum segment 7, two hour ex vivo ischemia
# Protocol: Immunoblotting—To determine whether selected epithelial barrier proteins were degraded during ischemia, pre- and post-ischemic intestinal tissue homogenates (segment 7) were analyzed for relative levels of mucin 13, occludin, and E-cadherin.
# Tissues were homogenized for immunoblot analysis in buffer (CelLytic, Sigma-Aldrich) with protease inhibitor cocktail (HALT, Thermo Scientific, 1:100 dilution) and centrifuged (1×10^4 g, 20 min). Protein concentration in supernatants was determined (BCA, ThermoScientific). To separate proteins by gel electrophoresis, 30 μg of protein/well were loaded in 8 or 12% resolving gels with 4% stacking gels and transferred to nitrocellulose membranes (Bio-Rad, Hercules, Calif.). Membranes were blocked for one hour with either 5% bovine serum albumin (BSA) or 5% nonfat milk in tris-buffered saline with 0.5% Tween-20 (TBS-T). Primary antibodies diluted in 1% BSA or 1% nonfat milk against mucin 13 (1:1000, extracellular domain, sc-66973 Santa Cruz Biotechnology, Santa Cruz, Calif.), E-cadherin (1:1000, intracellular domain, 33-4000, Invitrogen), occludin (1:1000, intracellular domain, 33-1500, Invitrogen), pancreatic trypsin (1:1000, sc-137077 Santa Cruz Biotechnology), or β-actin (1:1000, sc-130301, Santa Cruz Biotechnology) were incubated overnight at 4° C. After incubation, membranes were washed with TBS-T (3×, 10 min) before addition of goat anti-rabbit or rabbit anti-mouse secondary antibodies (Santa Cruz Biotechnology) diluted 1:1000 in TBS-T. Following secondary antibody incubation (60 min), the membranes were washed with TBS-T (3×) and developed.
# [4] = system: ischemic small intestine segments (jejunum to ileum); experiment: Ex vivo intestinal ischemia: transmural fluorescein transport across wall of flushed intestinal segments; parameters: species or system rat; settings: inhibitor in lumen without glucose, vs saline
# Text: Intestinal Ischemia—Since intestinal properties are non-homogenous, the transmural permeability was investigated over the entire length of the jejunum and ileum. Due to physical constraints of the small intestine anatomy, it is not feasible to simultaneously analyze permeability from multiple segments in vivo. Therefore, an ex vivo approach similar to previously published studies was designed to measure permeability along the length of the small intestine.
# A midline incision was made to expose the intestine in anesthetized rats. The proximal end of the jejunum (approximately 5 cm distal from the ligament of Treitz) was cannulated with a female luer to barb tube connector (⅛″ inner diameter). The intestine was removed and placed in saline immediately before euthanasia. […]
# Sealed segments were rinsed in saline, individually placed in 15 ml conical tubes containing 6 ml saline, and incubated at 37° C. for 2 hours to simulate ischemic conditions. […] Plates were read in a plate reader (FilterMax F-5 Multi-mode, Molecular Devices, Sunnyvale, Calif.) for concentration of fluorescein (excitation 494/emission 521) to measure diffusion across the wall of the intestine. […]
# [5] = system: hemorrhagic shock; experiment: Hemorrhagic shock with enteral/IV/IP treatments: intestine, plasma and lung injury (Example 2); type: in vivo, rat; settings: after HS
# Protocol: Adult male Sprague Dawley rats (mean±standard deviation (SD) body weight 340±60 g, N=64, Harlan, Indianapolis, Ind.) were allowed food and water ad libitum prior to surgery. Rats were administered general anesthesia (xylazine, 4 mg/kg; ketamine 75 mg/kg IM) and remained anesthetized throughout the experiment. At the termination of experiments, rats were euthanized by infusion of B-Euthanasia IV (120 mg/kg). The femoral artery and vein were cannulated. Systolic, diastolic, heart rate, and mean arterial pressure (MAP) were recorded throughout the procedure using LabChart (AD Instruments, Dunedin, New Zealand).
# Hemorrhagic Shock (HS) with Removal of Luminal Contents—Animals were grouped into no-HS (No-HS), HS with intestinal luminal contents flushed (HS-F), and HS without intestinal flush (HS-NF). No-HS animals were immediately sacrificed for tissue collection following cannulation. All other animals were subject to laparotomy before the intestine was exposed and gross morphology was photographically recorded. Enteral treatments were administered to the intestine before returning to the peritoneal cavity (Table 1). IV/IP injections were delivered following the intestinal injections.
# Following the intestinal preparations, the animals were heparinized to minimize clotting in catheters and in shed blood samples (1 U/mL of calculated blood volume i.v.; assuming 6 mL blood volume per 100 g total body weight) before onset of hemorrhage. MAP was reduced to 30 mmHg by withdrawal of blood through the venous catheter (0.4 mL/min) with a 5 mL syringe. The initial 1 mL of blood drawn was collected, centrifuged (1000 g, 5 min), and the plasma was immediately frozen at […] for further analysis. The arterial pressure was monitored and adjusted by withdrawal/return of blood over the 90-min ischemic period. At the end of ischemia, the shed blood was returned to the animals (0.5 mL/min) plus 1 mL of saline (to replace the 1 mL of blood collected before shock).
# Gross morphology images of the intestine were captured at the end of the reperfusion period. Post-HS blood was collected through the arterial catheter, spun (1000 g, 5 min), and the plasma was immediately frozen at 80° C. […]
# After hemorrhagic shock, bronchoalveolar lavage fluid (BALF) was collected by inserting an 18 gauge blunt needle into the left main bronchus of the left lung. […] The images were blindly assessed for macroscopic lung damage. […]
# To collect BALF fluid, saline (˜2.0 ml/lavage) was injected and recovered three times before centrifugation (1000 g, 5 min). […] The total volume of recovered BALF fluid was measured and the fraction of saline recovered versus the amount injected was used to normalize all measurements. […]
# [6] = system: 20 kDa serine proteases; experiment: Gelatin gel zymography of pre-ischemic intestinal homogenates renatured with inhibitor: serine protease bands; type: biochemical, rat; settings: inhibitor in renaturing and developing buffer: tranexamic acid 20 mM, doxycycline 1 mg/ml, GM-6001 1 ug/ml
# Protocol: Gelatin Gel Zymography—Segments 2 and 7 from pre-ischemic intestines were homogenized (0.1 g tissue/ml homogenization buffer; PBS pH 7.4 with 0.5% hexadecyltrimethyl bromide) and centrifuged at 1.4×10^4 g for 20 minutes. Supernatants were stored at −80° C. until samples were processed.
# To assess the proteolytic activities of individual proteases in intestinal tissue samples, sample volumes of 1 μl (with 2 μg of protein) were separated by gel electrophoresis in SDS-PAGE gels containing 80 μg/ml gelatin. […] The molecular weights of the proteases were estimated by use of a standard protein ladder (Invitrogen). Gels were digitized and bands were analyzed by densitometry in ImageJ (rsbweb.nih.gov/ij/).
# These gels were compared to a concurrently run gel processed normally.
structure (smiles),measurement,setting,value
C[C@H]1c2cccc(O)c2C(=O)C2=C(O)[C@]3(O)C(=O)C(C(N)=O)=C(O)[C@@H](N(C)C)[C@@H]3[C@@H](O)[C@@H]21 [doxycycline],"MMP gelatinase activity bands (220 kDa MMP-9 dimers, pro-MMP-2, MMP-2, 50 kDa band)",[1],reduced or eliminated
same,intestinal villi structure,[2],did not prevent the villi destruction
same,E-cadherin levels (immunoblot),[3],neither doxycycline nor GM 6001 were effective
same,mucin 13 levels (immunoblot),[3],neither doxycycline nor GM 6001 were effective
same,occludin levels (immunoblot),[3],neither doxycycline nor GM 6001 were effective
same,"fluorescein transport rates, 30-60 min and 60-90 min periods",[4],significantly decreased compared to the saline treated intestines
same,MMP-9 activity and levels in lung homogenates,[5],"elevated in lung homogenates, but to a lesser extent"
same,MPO activity of intestinal homogenates,[5],increased MPO activity
same,gross morphology of the intestine (microhemorrhages),[5],fewer regions with microhemorrhages
same,lung VE-cadherin levels,[5]; immunoblot,significantly reduced
same,20 kDa serine protease activity bands,[6],serine protease bands remained in all gels
